Values from PubChem BioAssay AID504793 (Drosophila RNAi Screening Center, 2011)
In all, the deposit lists about 23,000 reagents; shown is a random part of those with a known target gene and a result. Of all reagents, 62 (0.27%) are marked active. 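Calls come from follow-up tests whose scores are not deposited, so confirmed genes may have low counts here; counts are not normalised per plate.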 Raw values vary from plate to plate and are shown uncorrected. Entries without a mark were called inactive. A plus sign joins genes that one reagent is predicted to hit. No sequences are given here.

Aim: 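Whole-genome screen for parts of the DNA damage checkpoint at G2/M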 (primary screen)
Cell system: Drosophila S2R+ cells
Knock-down reagent: long dsRNA against Drosophila genes, about 0.25 µg dsRNA per well
Time to read-out: 4 days of dsRNA, then 4 hours of drug before read-out
Conditions: doxorubicin 0.5 µM for 4 hours to cause double-strand breaks, in cells also given a low, harmless dose of dsRNA against nbs to sensitise the assay
Read-out: 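Per-well count of mitotic cells stained for phospho-histone H3 after doxorubicin exposure, used as mitotic index; counts are raw and not normalised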
Direction: mitotic cells: higher = more cells in mitosis, weaker G2 arrest
Hit rule: 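a call needs confirmation in secondary tests, with other dsRNAs and a check of mitotic timing without damage, not just a high primary count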
Meaning of the calls: active = confirmed in follow-up tests; inactive = not confirmed

gene,amplicon,"mitotic cells, replicate 1"
CG16998,DRSC10235,4
CG11099,DRSC06034,9
CG7183,DRSC16210,5
SerT (Serotonin transporter),DRSC04655,3
SerT (Serotonin transporter),DRSC28934,10
HmgD (High mobility group protein D),DRSC04619,11
HmgD (High mobility group protein D),DRSC26171,6
CG13127,DRSC02223,7
CG13127,DRSC29726,6
CG2187,DRSC15425,12
CG2187,DRSC25548,7
Lhr (Lethal hybrid rescue),DRSC06759,8
Lhr (Lethal hybrid rescue),DRSC26915,10
slif (slimfast),DRSC11635,8
slif (slimfast),DRSC27438,4
CG32221,DRSC09638,2
CG12644 (retired record),DRSC17850,4
rux (roughex),DRSC18829,2
hpRNA:CR32205 + CG33255 (retired record),DRSC28015,11
CG14331,DRSC14810,14
CG31807,DRSC01550,3
CR30068 (retired record),DRSC05477,1
CR30068 (retired record),DRSC27393,6
beat-Va (beaten path Va),DRSC14192,3
unpg (unplugged),DRSC07713,8
unpg (unplugged),DRSC28861,5
Golgin97 (Golgin 97),DRSC06895,8
Nep4 (Neprilysin 4),DRSC15539,6
htk (hat-trick),DRSC20029,4
htk (hat-trick),DRSC20031,7
htk (hat-trick),DRSC27508,13
mRpL11 (mitochondrial ribosomal protein L11),DRSC15482,5
RpL30 (Ribosomal protein L30),DRSC02087,5
lncRNA:CR42491 + RpL22,DRSC25025,1
CG14341,DRSC00371,2
Slc45-1,DRSC10427,7

Continued; the last 11 above are carried over.
gene,amplicon,"mitotic cells, replicate 1"
unpg (unplugged),DRSC28861,5
Golgin97 (Golgin 97),DRSC06895,8
Nep4 (Neprilysin 4),DRSC15539,6
htk (hat-trick),DRSC20029,4
htk (hat-trick),DRSC20031,7
htk (hat-trick),DRSC27508,13
mRpL11 (mitochondrial ribosomal protein L11),DRSC15482,5
RpL30 (Ribosomal protein L30),DRSC02087,5
lncRNA:CR42491 + RpL22,DRSC25025,1
CG14341,DRSC00371,2
Slc45-1,DRSC10427,7
sand (sandman),DRSC07245,6
MED30 (Mediator complex subunit 30),DRSC23135,7
MED30 (Mediator complex subunit 30),DRSC30026,12
CG31178,DRSC14590,7
CG31778,DRSC00283,9
CG13069,DRSC09952,3
Dscam3 (Down syndrome cell adhesion molecule 3),DRSC14525,12
Dscam3 (Down syndrome cell adhesion molecule 3),DRSC16376,4
CG9917,DRSC20218,6
CG16922 (retired record),DRSC23140,12
CG16922 (retired record),DRSC27994,4
CG3527,DRSC18307,12
CG3527,DRSC28450,1
slpr (slipper),DRSC18225,2
slpr (slipper),DRSC23321,10
r (rudimentary),DRSC19813,23
r (rudimentary),DRSC19814,11
r (rudimentary),DRSC39150,15
CG10939,DRSC06019,2
CG10939,DRSC21734,4
laf (labial associated factor),DRSC12246,12
CG15880,DRSC00474,3
CG12909,DRSC06224,13
CG12909,DRSC27706,8
CG32187,DRSC10521,3
CG31528,DRSC12003,6
erm (earmuff),DRSC00700,5
CG10853,DRSC08164,6
CG10853,DRSC23600,5
CG15745 (retired record),DRSC19711,9
CG13239,DRSC11694,7
Rubicon,DRSC17889,6
Rubicon,DRSC25992,8
CG2604,DRSC12313,5
CG2604,DRSC29919,9
CG6689,DRSC16095,2
CG6689,DRSC28313,8
CG5346,DRSC15778,11
CG5346,DRSC26107,2
CG8079,DRSC07070,1
CG8079,DRSC07071,4
Takl2 (Tak1-like 2),DRSC15650,9
GstZ2 (Glutathione S transferase Z2),DRSC16479,3
Prx6c (Peroxiredoxin 6c),DRSC06080,9
Prx6c (Peroxiredoxin 6c),DRSC28598,8
CG11368,DRSC17778,8
CG9757,DRSC16557,6
CG9757,DRSC21707,7
CG9757,DRSC25621,9
CG14567,DRSC11728,10
CG13989,DRSC02321,4
ssp6 (short spindle 6),DRSC08791,8
ssp6 (short spindle 6),DRSC10677,1
ssp6 (short spindle 6),DRSC27709,5
CG7781,DRSC03068,2
CG15059,DRSC19633,10
CG15059,DRSC28667,4
SPR (Sex peptide receptor),DRSC17886,7
SPR (Sex peptide receptor),DRSC18114,16
SPR (Sex peptide receptor),DRSC21557,7
CG32320,DRSC21514,10
CG32320,DRSC28106,7
Abd-B (Abdominal B),DRSC14098,7
Abd-B (Abdominal B),DRSC14337,6
Abd-B (Abdominal B),DRSC28796,5
CG8195,DRSC07103,7
La (La autoantigen-like),DRSC03358,7
FER (FER tyrosine kinase),DRSC12735,21
FER (FER tyrosine kinase),DRSC16673,6
FER (FER tyrosine kinase),DRSC29894,3
CAH13 (Carbonic anhydrase 13),DRSC06128,5
CAH13 (Carbonic anhydrase 13),DRSC24093,8
Dyrk2 (Dual-specificity tyrosine phosphorylation-regulated kinase 2),DRSC03610,7
Dyrk2 (Dual-specificity tyrosine phosphorylation-regulated kinase 2),DRSC29029,9
